Measurements reported in publication PMC6131548.
These are yes or no findings as the source states them, for the method shown. For part of these data: Binding seen in cells or lysates may run through a third protein. Some entries that bind do so weakly or less than the wild type. For part of these data: Tags and fused reporters may be left off the sequences shown.

By UniProt entry, the sequences of proteins in these tests, tags left out. Where a name states a change or a piece, a line headed by the entry shows the natural chain unless it says otherwise. Chains listed by the source or under a name are the forms on record and can include a tag or linker.
UniProt Q12055: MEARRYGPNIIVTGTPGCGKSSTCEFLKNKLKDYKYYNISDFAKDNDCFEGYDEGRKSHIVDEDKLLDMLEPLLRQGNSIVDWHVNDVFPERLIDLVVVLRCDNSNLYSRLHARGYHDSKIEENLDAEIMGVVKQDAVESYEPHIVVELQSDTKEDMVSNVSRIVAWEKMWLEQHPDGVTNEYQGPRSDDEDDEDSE
UniProt P39938: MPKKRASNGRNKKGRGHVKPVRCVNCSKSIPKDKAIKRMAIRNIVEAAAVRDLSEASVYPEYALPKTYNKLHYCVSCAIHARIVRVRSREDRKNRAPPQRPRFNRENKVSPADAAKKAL
eS26^ΔESS1ΔESS2-FLAG (P39938, form named): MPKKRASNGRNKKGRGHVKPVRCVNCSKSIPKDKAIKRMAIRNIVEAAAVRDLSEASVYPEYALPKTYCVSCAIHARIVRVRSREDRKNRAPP
eS26^ΔESS1-FLAG (P39938, form named): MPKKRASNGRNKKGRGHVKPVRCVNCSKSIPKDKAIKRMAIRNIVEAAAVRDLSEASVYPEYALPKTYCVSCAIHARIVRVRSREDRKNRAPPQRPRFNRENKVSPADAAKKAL

Assays:
[1] = target: T1, GST-Kap123 (yeast) (UniProt P40069); experiment: pull-down; GST-Kap123 on Glutathione Sepharose incubated with eS26^FLAG variants in the presence of competing E. coli lysates; western with α-FLAG; only the target purified
T1 sequence: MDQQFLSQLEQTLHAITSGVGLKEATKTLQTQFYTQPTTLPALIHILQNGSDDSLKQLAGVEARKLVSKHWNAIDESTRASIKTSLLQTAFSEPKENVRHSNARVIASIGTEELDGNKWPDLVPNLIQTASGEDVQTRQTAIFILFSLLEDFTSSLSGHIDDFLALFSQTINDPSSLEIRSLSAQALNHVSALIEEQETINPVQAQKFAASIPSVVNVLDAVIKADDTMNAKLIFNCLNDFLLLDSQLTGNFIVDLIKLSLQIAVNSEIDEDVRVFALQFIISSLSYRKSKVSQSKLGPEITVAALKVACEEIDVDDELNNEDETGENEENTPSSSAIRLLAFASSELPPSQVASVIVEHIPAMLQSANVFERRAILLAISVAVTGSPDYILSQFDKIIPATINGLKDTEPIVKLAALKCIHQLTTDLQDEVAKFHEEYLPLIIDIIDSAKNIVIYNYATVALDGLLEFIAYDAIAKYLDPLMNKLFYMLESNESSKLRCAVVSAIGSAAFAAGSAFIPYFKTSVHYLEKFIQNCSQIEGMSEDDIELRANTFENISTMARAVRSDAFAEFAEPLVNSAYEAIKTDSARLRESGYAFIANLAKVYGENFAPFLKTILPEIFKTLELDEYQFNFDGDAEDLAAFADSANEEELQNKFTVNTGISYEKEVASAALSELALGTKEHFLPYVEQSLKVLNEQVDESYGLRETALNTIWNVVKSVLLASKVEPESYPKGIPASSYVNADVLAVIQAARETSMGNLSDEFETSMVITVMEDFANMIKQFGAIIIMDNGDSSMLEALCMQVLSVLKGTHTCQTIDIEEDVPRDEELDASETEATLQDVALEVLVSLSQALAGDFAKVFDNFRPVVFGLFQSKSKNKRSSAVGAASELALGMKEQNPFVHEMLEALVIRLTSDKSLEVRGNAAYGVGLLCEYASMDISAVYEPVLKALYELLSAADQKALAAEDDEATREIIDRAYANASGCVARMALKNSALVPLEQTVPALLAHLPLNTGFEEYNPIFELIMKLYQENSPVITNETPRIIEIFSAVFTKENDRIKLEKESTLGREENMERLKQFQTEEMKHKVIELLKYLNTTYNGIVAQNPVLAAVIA

[2] = target: Fap7:uS11 complex (UniProt Q12055); experiment: pull-down; recruitment of eS26 to the Fap7:uS11 complex and extraction by Tsr2, Supplementary Fig. 7b; set-up not shown
[3] = target: T2, Tsr2-N (recombinant, binding assays) (S. cerevisiae (yeast)) (UniProt Q06672); experiment: pull-down; in vitro binding assay, Supplementary Fig. 1b lane 6; set-up not shown
T2 sequence: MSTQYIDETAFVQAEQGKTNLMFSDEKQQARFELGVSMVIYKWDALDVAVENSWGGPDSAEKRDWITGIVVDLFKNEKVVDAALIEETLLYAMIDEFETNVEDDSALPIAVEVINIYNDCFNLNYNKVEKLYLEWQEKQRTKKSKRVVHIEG

[4] = target: T3, full-length Tsr2 (NMR) (S. cerevisiae (yeast)) (UniProt Q06672); experiment: NMR chemical shift perturbation; 13C,15N-labeled Tsr2:eS26 complex made by co-expression, compared with free full-length Tsr2; 303.15 K, 20 mM sodium phosphate pH 7.0, 1 mM DTT, 10 μM EDTA; both purified
T3 sequence (chain, 13C,15N-labeled): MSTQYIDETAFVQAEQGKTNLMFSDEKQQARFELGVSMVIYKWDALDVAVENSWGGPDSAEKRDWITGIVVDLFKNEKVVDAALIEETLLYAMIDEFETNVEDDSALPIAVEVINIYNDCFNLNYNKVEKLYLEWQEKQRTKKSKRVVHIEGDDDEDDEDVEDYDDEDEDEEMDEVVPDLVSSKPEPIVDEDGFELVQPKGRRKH

[5] = target: T4, Tsr2-N (two-hybrid) (S. cerevisiae (yeast)) (UniProt Q06672); experiment: two-hybrid; Supplementary Fig. 1a; set-up not shown
T4 sequence: T2 sequence

Q: “eS26^ΔESS1ΔESS2-FLAG (from UniProt P39938 1-119)” was tested. Which binding [1] did it give?
A: binds

Q: How did the binding [2] turn out when “eS26^ΔESS2-FLAG (from UniProt P39938 1-119)” was run?
A: binds

Q: What about the binding [1] of the same substance?
A: binds

Q: With “recombinant WT eS26 (from UniProt P39938 1-119)” as the substance, how does the binding [3] read?
A: binds

Q: And the binding [2]?
A: binds

Q: How did the binding [4] turn out when “eS26 (NMR, co-expressed with Tsr2) (from UniProt P39938 1-119)” was run?
A: binds

Q: For eS26^FLAG (from UniProt P39938 1-119), which binding [1] is on record?
A: binds

Q: For “eS26^ΔESS1-FLAG (from UniProt P39938 1-119)”, which binding [1] is on record?
A: binds

Q: How did the binding [5] turn out when “eS26 (two-hybrid) (from UniProt P39938 1-119)” was run?
A: binds
